# Measured values as given in the supplement of paper PMC8728848.
# The list shows a part of the results.
# B1: EUL D1A second (Oryza sativa) (protein)
# chain: GAATACTIGGVPVHTVRVFSAAGEDYCLTVRNGTACLAPKNPRDDYQHWIKDMRHSNKIRDEEGYPAFALVNKVTGEAIKHSTGQGHPVKLVPYNPEYQDESVLWTESKDVGKGFRCIRMVNNIYLNFDAFHGDKDHGGIHDGTEIVLWKWCEGDNQRWKILPWILEQKLISEEDLNSAVDHHHHHH
# Key:
# Test in all cases: glycan array binding signal (z-score within array); higher = stronger binding
# Conditions in all cases: glycan notation: IUPAC condensed, linker removed
# [1] = molecular target: Fuc(a1-2)Gal(b1-4)GlcNAc(b1-3)Gal(b1-4)GlcNAc(b1-3)Gal(b1-4)GlcNAc
# Outline: (§1)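 From the Consortium for Functional Glycomics database, 3228 arrays were curated, keeping only those whose protein sequence was available. Binding is given as a within-array Z-score averaged across arrays sharing a protein sequence and across linkers. Negative Z-scores can be read as non-binding.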
# [2] = molecular target: Fuc(a1-2)Gal(b1-4)GlcNAc(b1-3)GalNAc
# Outline: as §1
# [3] = molecular target: Fuc(a1-2)Gal(b1-4)GlcNAc(b1-3)[Fuc(a1-2)Gal(b1-4)GlcNAc(b1-6)]GalNAc
# Outline: as §1
# [4] = molecular target: Fuc(a1-2)Gal(b1-4)GlcNAc(b1-3)[Fuc(a1-3)[Gal(b1-4)]GlcNAc(b1-6)]Gal(b1-4)Glc
# Outline: as §1
# [5] = molecular target: Fuc(a1-2)Gal(b1-4)GlcNAc(b1-6)GalNAc
# Outline: as §1
# [6] = molecular target: Fuc(a1-2)Gal(b1-4)GlcNAc6S
# Outline: as §1
# [7] = molecular target: Fuc(a1-2)Gal(b1-4)[Fuc(a1-3)]GlcNAc
# Outline: as §1
# [8] = molecular target: Fuc(a1-2)Gal(b1-4)[Fuc(a1-3)]GlcNAc(b1-2)Man(a1-3)[Fuc(a1-2)Gal(b1-4)[Fuc(a1-3)]GlcNAc(b1-2)Man(a1-6)]Man(b1-4)GlcNAc(b1-4)[Fuc(a1-6)]GlcNAc
# Outline: as §1
# [9] = molecular target: Fuc(a1-2)Gal(b1-4)[Fuc(a1-3)]GlcNAc(b1-2)[Fuc(a1-2)Gal(b1-4)[Fuc(a1-3)]GlcNAc(b1-4)]Man(a1-3)[Fuc(a1-2)Gal(b1-4)[Fuc(a1-3)]GlcNAc(b1-2)Man(a1-6)]Man(b1-4)GlcNAc(b1-4)GlcNAc
# Outline: as §1
# [10] = molecular target: Fuc(a1-2)Gal(b1-4)[Fuc(a1-3)]GlcNAc(b1-3)Gal(b1-4)[Fuc(a1-3)]GlcNAc
# Outline: as §1
# [11] = molecular target: Fuc(a1-2)Gal(b1-4)[Fuc(a1-3)]GlcNAc(b1-3)Gal(b1-4)[Fuc(a1-3)]GlcNAc(b1-3)Gal(b1-4)[Fuc(a1-3)]GlcNAc
# Outline: as §1
# [12] = molecular target: Fuc(a1-2)Gal(b1-4)[Fuc(a1-3)]GlcNAc(b1-3)GalNAc
# Outline: as §1
# [13] = molecular target: Fuc(a1-2)Gal(b1-4)[Fuc(a1-3)]GlcNAc(b1-3)[Neu5Ac(a2-6)Gal(b1-4)GlcNAc(b1-6)]Gal(b1-4)Glc
# Outline: as §1
# [14] = molecular target: Fuc(a1-2)Gal3S(b1-4)GlcNAc
# Outline: as §1
# [15] = molecular target: Fuc(a1-2)Gal6S(b1-3)GlcNAc
# Outline: as §1
# [16] = molecular target: Fuc(a1-2)Gal6S(b1-3)GlcNAc6S
# Outline: as §1
# Fuc(a1-2)Gal6S(b1-4)Glc = molecular target: Fuc(a1-2)Gal6S(b1-4)Glc
# Outline: as §1
# [17] = molecular target: Fuc(a1-2)Gal6S(b1-4)Glc6S
# Outline: as §1
# Fuc(a1-2)[Gal(a1-3)]Gal = molecular target: Fuc(a1-2)[Gal(a1-3)]Gal
# Outline: as §1
# [18] = molecular target: Fuc(a1-2)[Gal(a1-3)]Gal(b1-3)GalNAc
# Outline: as §1
# [19] = molecular target: Fuc(a1-2)[Gal(a1-3)]Gal(b1-3)GalNAc(b1-3)Gal(a1-4)Gal(b1-4)Glc
# Outline: as §1
# [20] = molecular target: Fuc(a1-2)[Gal(a1-3)]Gal(b1-3)GlcNAc
# Outline: as §1
# [21] = molecular target: Fuc(a1-2)[Gal(a1-3)]Gal(b1-3)GlcNAc(b1-2)Man(a1-3)[Fuc(a1-2)[Gal(a1-3)]Gal(b1-3)GlcNAc(b1-2)Man(a1-6)]Man(b1-4)GlcNAc(b1-4)GlcNAc
# Outline: as §1
# [22] = molecular target: Fuc(a1-2)[Gal(a1-3)]Gal(b1-3)GlcNAc(b1-2)Man(a1-3)[Fuc(a1-2)[Gal(a1-3)]Gal(b1-3)GlcNAc(b1-2)Man(a1-6)]Man(b1-4)GlcNAc(b1-4)[Fuc(a1-6)]GlcNAc
# Outline: as §1
# [23] = molecular target: Fuc(a1-2)[Gal(a1-3)]Gal(b1-3)GlcNAc(b1-3)GalNAc
# Outline: as §1
# [24] = molecular target: Fuc(a1-2)[Gal(a1-3)]Gal(b1-3)GlcNAc(b1-6)GalNAc
# Outline: as §1
# [25] = molecular target: Fuc(a1-2)[Gal(a1-3)]Gal(b1-4)Glc
# Outline: as §1
# [26] = molecular target: Fuc(a1-2)[Gal(a1-3)]Gal(b1-4)GlcNAc
# Outline: as §1
# [27] = molecular target: Fuc(a1-2)[Gal(a1-3)]Gal(b1-4)GlcNAc(b1-2)Man
# Outline: as §1
# [28] = molecular target: Fuc(a1-2)[Gal(a1-3)]Gal(b1-4)GlcNAc(b1-2)Man(a1-3)[Fuc(a1-2)[Gal(a1-3)]Gal(b1-4)GlcNAc(b1-2)Man(a1-6)]Man(b1-4)GlcNAc(b1-4)GlcNAc
# Outline: as §1
binder,measurement,setting,value
B1,glycan array binding signal (z-score),[1],0.558
same,glycan array binding signal (z-score),[2],-0.516
same,glycan array binding signal (z-score),[3],-1.55
same,glycan array binding signal (z-score),[4],0.354
same,glycan array binding signal (z-score),[5],0.581
same,glycan array binding signal (z-score),[6],-0.596
same,glycan array binding signal (z-score),[7],-0.571
same,glycan array binding signal (z-score),[8],-0.719
same,glycan array binding signal (z-score),[9],-0.79
same,glycan array binding signal (z-score),[10],0.548
same,glycan array binding signal (z-score),[11],0.487
same,glycan array binding signal (z-score),[12],1.21
same,glycan array binding signal (z-score),[13],0.625
same,glycan array binding signal (z-score),[14],0.228
same,glycan array binding signal (z-score),[15],-1.71
same,glycan array binding signal (z-score),[16],1.43
same,glycan array binding signal (z-score),Fuc(a1-2)Gal6S(b1-4)Glc,-0.98
same,glycan array binding signal (z-score),[17],-0.663
same,glycan array binding signal (z-score),Fuc(a1-2)[Gal(a1-3)]Gal,0.547
same,glycan array binding signal (z-score),[18],0.087
same,glycan array binding signal (z-score),[19],-0.934
same,glycan array binding signal (z-score),[20],0.389
same,glycan array binding signal (z-score),[21],-0.152
same,glycan array binding signal (z-score),[22],-1.06
same,glycan array binding signal (z-score),[23],-1.58
same,glycan array binding signal (z-score),[24],-1.45
same,glycan array binding signal (z-score),[25],0.613
same,glycan array binding signal (z-score),[26],-0.058
same,glycan array binding signal (z-score),[27],-0.674
same,glycan array binding signal (z-score),[28],1.76

# Nothing new here: entries from further up.
binder,measurement,setting,value
B1,glycan array binding signal (z-score),[24],-1.45
same,glycan array binding signal (z-score),[25],0.613
